# The campaign covered roughly 410,000 compounds. About 18,000 (4.4%) were called active. Inconclusive means that the source gave no clear call. Such entries were picked first, then a sample of the others. Cut-off read from the data, not from the text of the source: active = activity change below about -60%; inconclusive = no clear call, values can overlap the other calls; inactive = above about -39%.
# Assay: qHTS Assay for inhibitors of the human cytomegalovirus (HCMV)
# Details: HFF cells, HCMV-luciferase reporter, 72 h; at 57.5 µM; hits give low values
# Summary of the method: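 Inhibition of viral replication was scored as loss of reporter luminescence in HFFs infected with HCMV-luciferase (MOI 1 PFU/cell) for 72 h; compounds tested at 2 doses, normalized to buffer and Salinomycin controls.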
# % is set by controls: 0 for no effect and ±100 for the full control effect.
row,Structure (SMILES),"activity change, negative = inhibition"
1,COc1ccc(F)cc1C(=O)C1CCCN(C(=O)CSc2ccccn2)C1 (stereo not given),inconclusive: -41.7%
2,Cn1cc(CN2CCC(CO)CC2)c(-c2ccc(Oc3ccccc3)cc2)n1,inconclusive: -40.5%
3,CCOc1ccc(-n2c(Cc3cc(=O)[nH]c(=O)[nH]3)nnc2SCc2cccnc2)cc1,inconclusive: -45.2%
4,COc1ccccc1NC(=O)c1c(N=Cc2c(O)ccc3ccccc23)cnn1C,active: -89.2%
5,COc1ccc(Br)cc1CN(C)CC(O)COc1ccc(Br)cc1 (stereo not given),inconclusive: -48.2%
6,CCN(CC)S(=O)(=O)c1ccc(N2CCN(C)CC2)c(NC(=O)CN2C(=O)NC3(CCCCC3)C2=O)c1,inconclusive: -46.1%
7,Cc1nonc1NC(=O)c1ccc(Cl)c(S(=O)(=O)N2CCCCC2)c1,inactive: -28.5%
8,Cc1ccc(-c2nn(-c3ccccc3)cc2C=C2C(=O)CC(C)(C)CC2=O)cc1,inactive: 121%
9,CNC(=O)c1ccc(NC(=O)C2CCN(c3ncnc4sc(C)c(C)c34)CC2)cc1,inconclusive: -46.3%
10,CC(=O)N1CCOc2cc(S(=O)(=O)N(C)Cc3ccccc3)c(Cl)cc21,inconclusive: -56.4%
11,Cc1c(NC(NC(=O)CC(C)C)C(Cl)(Cl)Cl)c(=O)n(-c2ccccc2)n1C (stereo not given),inconclusive: -44.2%
12,Nc1nnn(CC(=O)N/N=C/c2cccc3ccccc23)n1,inconclusive: -55.3%
13,Cc1nc(-c2ccc(S(=O)(=O)N3CCN(c4ccc(F)cc4)CC3)cc2)co1,inconclusive: -44.2%
14,CCO[C@H]1OC(C(=O)Nc2ccccc2)=C[C@@H](c2ccc(C(F)(F)F)cc2)[C@@H]1CCCO,inactive: -4.63%
15,S=C(NCc1cccnc1)Nc1ccc(Cl)c(Cl)c1,inconclusive: -49.9%
16,O=C(CN1CCCN(Cc2ccc(F)cc2)S1(=O)=O)NCc1ccccc1Cl,inactive: 0%
17,S=C(NCc1ccco1)Nc1ccc(Br)cn1,inconclusive: -58.2%
18,CCN(CC(=O)NCc1ccccn1)S(=O)(=O)c1ccc(OC)cc1,inactive: -5.55%
19,COc1ccc(CCN2C(=O)C3C4C=CC(C3C2=O)C2C(=O)N(CCc3ccc(OC)c(OC)c3)C(=O)C42)cc1OC (stereo not given),active: -94.2%
20,Cc1cc(=O)n2nc(N3CCCC(C(=O)NCCc4ccc(Cl)cc4)C3)sc2n1 (stereo not given),inactive: -27.8%
21,O=C(NCCCn1ccnc1)/C(=C\c1ccc(Br)cc1)NC(=O)c1ccccc1F,inactive: 5.46%
22,COc1ccc(-c2cc(=O)oc3c(C)c(OCC(=O)N[C@@H](Cc4ccc(O)cc4)C(=O)O)ccc23)cc1,inconclusive: -40.7%

row,Structure (SMILES),"activity change, negative = inhibition"
1,CC(=O)c1cc(CN2CCN(CC=C(C)C)C(CCO)C2)cs1 (stereo not given),inconclusive: -50.4%
2,CCc1cccc(CC)c1NC(=O)c1cccc(NC(=O)c2ccccc2)c1,active: -67.4%
3,NC1=NC(=O)/C(=C/c2ccc(OCC(=O)O)cc2)S1,inconclusive: -56.5%
4,FC(F)(F)c1cccc(NC(=S)N2CCN(c3ccccc3)CC2)c1,inconclusive: -40.1%
5,Cc1ccc(C)c(CN2C(=O)c3ccccc3S(=O)(=O)c3ccc(C(=O)NCc4ccccc4)cc32)c1,inconclusive: -59.5%
6,COC(=O)C1=C(c2c(C)noc2C)C[C@@H]2CC[C@H]1N2C(=O)NC1CC1,active: -96.8%
7,CCN(CC)S(=O)(=O)c1ccc2oc(C(=O)NC3CC3)c(C)c2c1,inconclusive: -46.1%
8,Cc1ccc(N(C(=O)CCl)C(C(=O)NC2CCCCC2)c2cccnc2)cc1C (stereo not given),active: -98.9%
9,CCOC(=O)[C@]12Cc3ccccc3[C@H]1N(C(C)C)C(=O)c1ccccc12,active: -105%
10,OCCNc1c2ccccc2nc2ccccc12,active: -101%
11,COc1ccccc1NC(=O)c1cc(C)oc1C,inconclusive: -47.6%
12,O=C(CSc1nnc(-c2ccccc2F)n1C1CC1)Nc1cccnc1Cl,inconclusive: -45%
13,CCCC(=O)Nc1ccc(NC(=O)c2ccco2)c(OC)c1,inactive: 94.3%
14,O=C(Cc1ccc(NC(=O)C2CCCN(C(=O)CCc3ccccc3)C2)cc1)Nc1cccc(C(=O)N2CCCCC2)c1 (stereo not given),inconclusive: -48.6%
15,CCOC(=O)c1ccsc1NC(=O)c1ccco1,inactive: -13.4%
16,O=C(Nc1cccc(S(=O)(=O)C(F)(F)F)c1)[C@@H]1O[C@H](CO)[C@@H](O)[C@H]1O,inconclusive: -47.3%
17,CCOC(=O)C1=CC[C@@H](c2ccccc2)N(S(=O)(=O)c2ccc(C)cc2)[C@H]1c1cccc(OC)c1,inconclusive: -40.3%
18,Cc1ccc(Cl)cc1Nc1nc(N2CCOCC2)nc(N2CCOCC2)n1,inconclusive: -49.5%
19,CCOCCCn1c(=S)[nH]c2cc(C(=O)NCC(OC)OC)ccc2c1=O,inconclusive: -53.2%
20,Nc1nc(N)nc(-c2cccc(Cl)c2Cl)n1,inactive: -21.3%
21,O=C(Nc1nc(-c2ccccn2)cs1)c1ccc(Cl)s1,active: -96.4%
22,O=C(Cc1ccc([N+](=O)[O-])cc1)N/N=C/c1ccc([N+](=O)[O-])o1,inactive: -17.8%

row,Structure (SMILES),"activity change, negative = inhibition"
1,Fc1ccc(F)c(C2=NNC(=Nc3ccccc3F)SC2)c1,inconclusive: -50.1%
2,NC(=O)CC(NC(=O)c1ccccc1)c1ccc(NC2CCCCCCC2)c([N+](=O)[O-])c1 (stereo not given),active: -98.9%
3,CCCOc1ccc(OCCn2nc(C(=O)O)c3ccccc3c2=O)cc1,inactive: 85.5%
4,COc1ccccc1NC(=O)COC(=O)C1CC(=O)N(c2ccc3c(c2)OCCO3)C1 (stereo not given),inconclusive: -52.8%
5,CCc1ccc2nc(N3CCN(C(=O)C4CC4)CC3)sc2c1,inconclusive: -49.3%
6,Cc1ccc(NC(=O)c2ccc(NC(=O)N3CCSc4ncccc43)cc2)c(C)c1,inconclusive: 0%
7,NC(=S)N/N=C/c1coc2ccc(O)cc2c1=O,inconclusive: -46.4%
8,Cc1cc(C)n2c(SCC(=O)N(C)C3CCCCC3)nnc2n1,inconclusive: -42.6%
9,CCOC(=O)Cn1c(=O)c2c(nc3n2CC(C)CN3Cc2ccccc2)n(C)c1=O (stereo not given),inconclusive: -42.2%
10,CCCCNC(=O)c1ccc2nc(CC)c(N(C)Cc3ccc(OC)cc3)n2c1,inactive: -23.7%
11,COc1ccc(CN2C[C@H](COCc3ccccc3)Oc3cccc(N4CCCC4)c3S2(=O)=O)cc1,inactive: -17.9%
12,Fc1ccccc1/C=C1\CCCC2=C1NC(=S)NC2c1ccccc1F (stereo not given),inconclusive: -56.8%
13,COc1ccc(OC)c(CNC(=O)Cn2nc(C)c3c(C)n(-c4ccc(C)cc4)nc3c2=O)c1,inconclusive: -58.5%
14,COC(=O)CCC(=O)Nc1ccc(S(=O)(=O)Nc2cc(OC)nc(OC)n2)cc1,inconclusive: -53.4%
15,Cc1cc(C)cc(NC(=O)N2CCCN(Cc3c(F)cccc3Cl)CC2)c1,inactive: -17.5%
16,CCN1C=CC(=C2C(=O)c3ccccc3C2=O)C=C1,active: -89.3%
17,CC(=O)Nc1ccc(SCC(=O)Nc2ccccc2-c2ccccc2)cc1,inconclusive: -51.5%
18,CC1(C)CC(=O)C=C(Nc2ccccc2)C1,inconclusive: -43.6%
19,COc1cc(C2NC(=S)NC3=C2CCc2ccccc23)cc(OC)c1OC (stereo not given),inactive: 3.78%
20,O=C(c1ccc2c(c1)CCC2)N1CCN(Cc2ccccc2)CC1,inactive: -11.4%
21,CCc1ccc(OCC(=O)NC(NC(=S)Nc2ccccc2C)C(Cl)(Cl)Cl)cc1 (stereo not given),inconclusive: -41.7%
22,COCCn1c(-c2ccccc2)cnc1SCC(=O)Nc1cccc2ccccc12,inactive: 22.4%

# 4 consecutive records out of the list so far, quoted:
row,Structure (SMILES),"activity change, negative = inhibition"
18,CC1(C)CC(=O)C=C(Nc2ccccc2)C1,inconclusive: -43.6%
19,COc1cc(C2NC(=S)NC3=C2CCc2ccccc23)cc(OC)c1OC (stereo not given),inactive: 3.78%
20,O=C(c1ccc2c(c1)CCC2)N1CCN(Cc2ccccc2)CC1,inactive: -11.4%
21,CCc1ccc(OCC(=O)NC(NC(=S)Nc2ccccc2C)C(Cl)(Cl)Cl)cc1 (stereo not given),inconclusive: -41.7%

# Further structures:

row,Structure (SMILES),"activity change, negative = inhibition"
1,O=C(Nc1ccc2c(c1)OCCO2)c1cccc(Cl)c1Cl,inactive: 137%
2,O=c1c(-c2ccccc2)c(O)c2ccccc2n1-c1ccccc1,active: -63.8%
3,Cc1cccc(N2CCN(C(=O)c3ccc(NS(=O)(=O)c4ccc5[nH]c(=O)[nH]c5c4)cc3)CC2)c1C,active: -66.9%
4,Fc1ccccc1Cc1noc(CN2CCC(OCc3cccnc3)CC2)n1,inconclusive: -46.3%
5,CCOc1ccccc1C(=O)NC1CC2CCCC(C1)N2Cc1nnnn1Cc1ccco1 (stereo not given),inconclusive: -44.2%
6,CCC(C)c1ccc(C(C)NC(=S)NC2CCCCC2)cc1 (stereo not given),active: -73.1%
7,CC(=O)c1ccc(-c2nnc(CCC(=O)N(C)Cc3cccc4cnccc34)o2)s1,inconclusive: -40.9%
8,CS(=O)(=O)N(CC(=O)N1CCN(c2ccccc2F)CC1)C1CCCCC1,inconclusive: -42.7%
9,COC(=O)c1c(C)nn(-c2ccc(F)cc2)c1-n1cccc1,inconclusive: -44.9%
10,Cc1cccc(C)c1NC(=O)N1CCC(n2c(=O)[nH]c3ccccc32)CC1,inconclusive: -40.6%
11,COc1ccc(Br)cc1CNC(=O)c1ccc2c(c1)N(Cc1ccc(C)cc1)CCS2,inconclusive: -50%
12,NS(=O)(=O)c1ccc(NC(=O)CSc2nc3ccccc3n2-c2ccccc2)cc1,inconclusive: -42.9%
13,OC(COc1c(F)cc(Br)cc1F)CN1CCOCC1 (stereo not given),inconclusive: -54.7%
14,CCOC(=O)C1=C(Nc2ccc(OC)cc2)C(N)=NC1=N,inconclusive: -51.3%
15,Cc1ccccc1Cn1c2ccccc2c2cnn(CC(=O)NCc3ccco3)c(=O)c21,active: -95.6%
16,CN(C)S(=O)(=O)c1cccc(NC(=O)C2Cc3ccccc3CN2C(=O)c2ccco2)c1 (stereo not given),inactive: 19.7%
17,Cc1[nH]n2c(=O)cc(C(C)(C)C)nc2c1-c1ccccc1,active: -61.6%
18,CCOCCCn1c(=N)c(C(=O)NCC2CCCO2)cc2c(=O)n3cccc(C)c3nc21 (stereo not given),active: -67.1%
19,COC(=O)C1=C(c2ccc(F)cc2F)C[C@@H]2CC[C@H]1N2C(=O)NCc1ccc2c(c1)OCO2,inactive: 14.4%

# — PubChem BioAssay AID1259415 (National Center for Advancing Translational Sciences (NCATS), 2018)
